Results on one sequence are retold here after PMC4791640.

For at least one entry, the source does not settle the construct or the ends of the probe. The comparison behind a weaker result is the experiment's own reference, which may not be listed here.

This data set has as its target TON_1525(T55I) (Thermococcus onnurineus NA1 (156T mutation)) (UniProt B6YTS4). The data set is described as follows: EMSA. Particulars: 80 C, 10 min, affinity less than wild type, competition EMSA; EMSA: 100 nM DNA, 20 mM Tris-HCl, 200 mM KCl, 1 mM EDTA, 5% glycerol, pH 7.5, 80 C for 10 min; 5% native PAGE; recombinant protein; residues 1-146; protein details: TALON-purified (His tag implied); label: FAM (forward primer named labeled_FAM); probe letters rebuilt from the primers and the genome. In general terms: Mobility shift assays separate free from complexed probe on a gel.

As for “GAGAGTTTTACTGTCTCTAAATGAAAGGTTCTAATACGGTGGATCGAATAATTTCTTGCGTTTTTATCCGGATCGCCGAACACGATTCCATCTTAAAATCTTTTTGTTTACATTATACGAGGTGATCAACAATGCCAGCTTTTTCCGGTT (double strand) [CODH promoter 150-bp probe]”, the binding result is given as “binds more weakly”.
